Here are results for one sequence from article PMC9122601.

For at least one entry, the source does not settle the construct or the ends of the probe. At least one verdict was read from the data and is not stated in words by the source.

The target of the data set is His6-BrxR (BrxR-Efer) (Escherichia fergusonii (plasmid pEFER)) (UniProt B7L3Y3). The experiment in a line: competition with a labelled probe. The note with it: 20-fold excess versus labelled WT probe; EMSA: 10 mM Tris-HCl pH 7.9, 150 mM KCl, 0.5 mM EDTA, 0.2 mM DTT, 0.1% Triton X-100, 13% glycerol (1x of 5x buffer), 1 ug poly(dI-dC) per 10 ul, 2500 fmol probe; recombinant protein; residues 14-308; protein details: N-terminal His6. (In EMSA bound probe runs differently from free probe, usually more slowly.)

“GACGACTTGTTGATACTATGAAACCTACTGAAAAACAGTAGGTTGCTTGATGGCATTCAATCGATGGCTTAAGCTTTTGTCAGTGCGCA (double strand) [Unlabelled WT IR1-IR2 competitor]”: the binding result was “binds”.
